Assay [1] concerns the target MYL3 (myosin light chain family member) (bovine (endogenous in bovine MuSCs)) (UniProt P85100). The experiment in a line: co-IP; lysates of confluent bovine MuSCs incubated with MYH10, MYL3, PI3K or IgG antibodies overnight at 4 °C, captured on protein A/G magnetic beads, three washes, analysed by western blot.
Assay [2] addresses MYH10 (non‐muscle myosin IIB) (bovine (endogenous in bovine MuSCs)) (UniProt Q27991). The assay is described as above.

Chains of the proteins cited; added tags and fusions are not shown.
UniProt P85100: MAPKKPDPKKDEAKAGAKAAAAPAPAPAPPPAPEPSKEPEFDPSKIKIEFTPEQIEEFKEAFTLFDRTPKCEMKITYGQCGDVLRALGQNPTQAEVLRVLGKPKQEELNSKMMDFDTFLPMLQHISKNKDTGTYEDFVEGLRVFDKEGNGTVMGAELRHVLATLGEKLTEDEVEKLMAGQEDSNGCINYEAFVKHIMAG
UniProt Q27991: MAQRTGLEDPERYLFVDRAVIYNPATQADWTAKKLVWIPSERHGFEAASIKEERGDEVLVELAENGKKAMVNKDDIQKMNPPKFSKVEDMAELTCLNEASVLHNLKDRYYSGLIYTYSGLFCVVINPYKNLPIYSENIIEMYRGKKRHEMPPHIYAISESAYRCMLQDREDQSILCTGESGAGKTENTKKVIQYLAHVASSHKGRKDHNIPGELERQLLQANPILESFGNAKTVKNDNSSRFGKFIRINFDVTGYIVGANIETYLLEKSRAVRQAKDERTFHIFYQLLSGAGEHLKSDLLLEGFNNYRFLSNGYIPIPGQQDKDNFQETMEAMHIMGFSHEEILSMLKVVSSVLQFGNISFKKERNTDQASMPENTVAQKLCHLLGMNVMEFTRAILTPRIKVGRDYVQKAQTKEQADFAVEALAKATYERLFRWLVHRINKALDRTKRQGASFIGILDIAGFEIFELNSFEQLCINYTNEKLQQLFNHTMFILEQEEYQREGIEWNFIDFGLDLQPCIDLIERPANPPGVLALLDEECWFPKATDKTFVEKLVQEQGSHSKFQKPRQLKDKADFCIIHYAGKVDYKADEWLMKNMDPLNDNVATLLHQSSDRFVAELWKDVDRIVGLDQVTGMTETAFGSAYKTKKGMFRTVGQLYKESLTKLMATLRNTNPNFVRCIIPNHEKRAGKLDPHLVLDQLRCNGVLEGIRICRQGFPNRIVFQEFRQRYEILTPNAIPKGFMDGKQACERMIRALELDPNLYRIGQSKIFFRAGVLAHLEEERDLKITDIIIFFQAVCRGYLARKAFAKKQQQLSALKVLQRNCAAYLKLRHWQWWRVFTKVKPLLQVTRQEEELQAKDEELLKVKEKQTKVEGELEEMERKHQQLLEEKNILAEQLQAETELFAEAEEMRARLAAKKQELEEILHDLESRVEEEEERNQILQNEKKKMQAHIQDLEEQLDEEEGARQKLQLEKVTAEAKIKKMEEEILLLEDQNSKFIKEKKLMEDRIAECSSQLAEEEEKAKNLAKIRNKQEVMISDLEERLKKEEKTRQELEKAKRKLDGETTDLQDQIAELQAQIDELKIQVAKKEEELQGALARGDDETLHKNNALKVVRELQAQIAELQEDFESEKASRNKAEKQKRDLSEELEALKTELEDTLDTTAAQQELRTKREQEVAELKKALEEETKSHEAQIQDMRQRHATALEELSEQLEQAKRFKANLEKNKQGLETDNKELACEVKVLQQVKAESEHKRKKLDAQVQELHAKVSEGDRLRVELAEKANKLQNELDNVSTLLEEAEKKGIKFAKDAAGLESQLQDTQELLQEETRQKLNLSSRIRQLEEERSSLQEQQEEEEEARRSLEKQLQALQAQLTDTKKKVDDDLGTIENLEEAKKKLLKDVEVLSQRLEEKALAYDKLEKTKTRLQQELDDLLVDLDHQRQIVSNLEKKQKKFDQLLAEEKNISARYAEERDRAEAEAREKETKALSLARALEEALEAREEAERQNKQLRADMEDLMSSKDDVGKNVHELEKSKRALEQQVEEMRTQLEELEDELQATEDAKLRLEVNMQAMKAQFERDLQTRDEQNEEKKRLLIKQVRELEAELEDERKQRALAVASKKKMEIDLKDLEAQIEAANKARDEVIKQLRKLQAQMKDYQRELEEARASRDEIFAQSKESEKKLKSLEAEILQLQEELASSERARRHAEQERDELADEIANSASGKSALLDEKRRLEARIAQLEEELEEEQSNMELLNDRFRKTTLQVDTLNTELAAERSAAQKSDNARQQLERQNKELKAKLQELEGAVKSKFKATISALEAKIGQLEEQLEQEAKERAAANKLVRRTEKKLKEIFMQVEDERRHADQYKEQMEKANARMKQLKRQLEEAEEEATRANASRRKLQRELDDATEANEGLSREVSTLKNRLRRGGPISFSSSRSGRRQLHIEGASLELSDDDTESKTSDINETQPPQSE

Results are given in words; binding and its absence hold for the method and conditions named. Binding seen in cells or lysates may run through a third protein. Some results given as binding are weak or reduced against the parent protein; the word gives no strength.

As for “MYH10 (non‐muscle myosin IIB) (from UniProt Q27991 1-1976)”, in assay [1], the binding entry was “binds”.

On to “MYL3 (myosin light chain family member) (from UniProt P85100 1-199)”, for which the binding result in assay [2] was “binds”.
